Data published in publication doi:10.1101/2023.04.09.536153.

Biological target: DCAF1 (human (endogenous in HEK293T)), Q9Y4B6
Assay: affinity purification with mass spectrometry
Conditions: remark: other sources report otherwise

binding: binds
B1: CUL4B, Q13620 1-913 (protein)
chain: MMSQSSGSGDGNDDEATTSKDGGFSSPSPSAAAAAQEVRSATDGNTSTTPPTSAKKRKLNSSSSSSSNSSNEREDFDSTSSSSSTPPLQPRDSASPSTSSFCLGVSVAASSHVPIQKKLRFEDTLEFVGFDAKMAEESSSSSSSSSPTAATSQQQQLKNKSILISSVASVHHANGLAKSSTTVSSFANSKPGSAKKLVIKNFKDKPKLPENYTDETWQKLKEAVEAIQNSTSIKYNLEELYQAVENLCSYKISANLYKQLRQICEDHIKAQIHQFREDSLDSVLFLKKIDRCWQNHCRQMIMIRSIFLFLDRTYVLQNSMLPSIWDMGLELFRAHIISDQKVQNKTIDGILLLIERERNGEAIDRSLLRSLLSMLSDLQIYQDSFEQRFLEETNRLYAAEGQKLMQEREVPEYLHHVNKRLEEEADRLITYLDQTTQKSLIATVEKQLLGEHLTAILQKGLNNLLDENRIQDLSLLYQLFSRVRGGVQVLLQQWIEYIKAFGSTIVINPEKDKTMVQELLDFKDKVDHIIDICFLKNEKFINAMKEAFETFINKRPNKPAELIAKYVDSKLRAGNKEATDEELEKMLDKIMIIFRFIYGKDVFEAFYKKDLAKRLLVGKSASVDAEKSMLSKLKHECGAAFTSKLEGMFKDMELSKDIMIQFKQYMQNQNVPGNIELTVNILTMGYWPTYVPMEVHLPPEMVKLQEIFKTFYLGKHSGRKLQWQSTLGHCVLKAEFKEGKKELQVSLFQTLVLLMFNEGEEFSLEEIKQATGIEDGELRRTLQSLACGKARVLAKNPKGKDIEDGDKFICNDDFKHKLFRIKINQIQMKETVEEQASTTERVFQDRQYQIDAAIVRIMKMRKTLSHNLLVSEVYNQLKFPVKPADLKKRIESLIDRDYMERDKENPNQYNYIA

Results are given in words; binding and its absence hold for the method and conditions named. In cells and extracts the contact can be indirect. Here binding means that the protein was enriched with, or labelled near, the bait; the list need not be complete.
